From PubChem BioAssay AID485314 (National Center for Advancing Translational Sciences (NCATS), 2010)
Screen size: about 340,000 compounds; about 4,500 (1.3%) were called active. This list was built around the results that the source calls inconclusive (neither active nor inactive); the mix of calls is not that of the screen. Calls follow the shape of the dose curve; as a rule, active = well fitted inhibition curve with a large enough effect; inconclusive = small, poorly fitted or top-dose-only effect, or another doubt; inactive = no such curve, though single readings can be large or run the other way. A potency beside an inconclusive call is a rough fit, not a confirmed value.

These compounds were tested against DNA polymerase beta (Homo sapiens) (UniProt P06746) (assay: qHTS Assay for Inhibitors of DNA Polymerase Beta). Details: Pol beta primer extension/strand displacement, fluorescence kinetic; activity change, negative = inhibition: at 114 µM (top of the series).
Source text: The base excision repair system in human cells is a target for therapeutic modulation of the response to irradiation treatment and DNA-damaging drugs. A key enzyme in this system is the bi-functional DNA polymerase known as DNA polymerase Beta (Pol Beta). The following is a homogeneous kinetic assay to study the primer extension and strand-displacement reaction catalyzed by pol beta.
A stepwise description of the 1536-well assay is shown in next Table. Three microliters of reagents (buffer in column 3 and 4 as negative control and 10 nM Pol beta in columns 1, 2, and 5-48) was dispensed into 1,536-well black solid-bottomed plate. Compounds (23 nL) were transferred via Kalypsys pin tool equipped with 1536-pin array (10 nL slotted pins, V&P Scientific, San Diego, CA). The plates were incubated for 15 min at room temperature, and 1 uL substrate (50 nM final concentration) were added to start the reaction and immediately read at 0 min read on Viewlux reader. The plate were further incubated for 10 min at room temperature, and then read on Viewlux again. Throughout the screen, reagent bottle and all liquid lines were chilled and made light-tight to minimize reagent degradation. All screening operations were performed on a fully integrated robotic system (Kalypsys, San Diego, CA) containing one RX-130 and two RX-90 anthropomorphic robotic arms (Staubli, Duncan, SC). Library plates were screened starting from the lowest and proceeding to the highest concentration, and a double-dipping step of the highest concentration was required to access higher concentrations of compounds. Vehicle-only plates, with DMSO being pin-transferred to the entire column 5-48 compound area, were inserted uniformly at the beginning and the end of each library in order to monitor for and record any shifts in the background, which can be affected by reagent dispensers or loss in enzyme activity overtime. Screening data were corrected, normalized, and concentration-effect relationships were derived by using publicly-available curve fitting algorithms developed in-house (http://ncgc.nih.gov/pub/openhts). A four parameter Hill equation was fitted to the concentration-response data by minimizing the residual error between the modeled and observed responses.
% is scaled to controls: 0 for no effect and ±100 for the full control effect; potency is read from the fitted curve at half-maximal effect.

Question: `O=C(C1CCCN(S(=O)(=O)c2ccc(Br)s2)C1)N1CCN(c2ccccc2F)CC1` (configuration not stated) was tested. Which Potency did it give?
Answer: Its Potency is “inactive”.

Question: Which Potency does the source give for `Fc1ccc(Nc2ncnc3onc(-c4ccc(Cl)cc4)c23)cc1Cl` here?
Answer: The Potency was inconclusive: 3.98 µM [inhibitor, full curve, poor fit].

Question: For `Cc1ccc2[nH]c(=O)cc(C(=O)OCC(=O)c3ccccc3)c2c1`, which Potency is on record?
Answer: The Potency was inconclusive: 39.8 µM [inhibitor, single point].

Question: `Cc1sc2nc(SCC(=O)Nc3ccc(S(N)(=O)=O)cc3)[nH]c(=O)c2c1C` was tested. Which Potency did it give?
Answer: The Potency was active: 25.1 µM.

Question: With `COc1cc(OC)c(NC(=O)Nc2cccc(OCc3cc(=O)n4ccccc4n3)c2)cc1Cl` as the compound, how does the Potency read?
Answer: Its Potency is inconclusive: 5.01 µM [inhibitor, full curve].

Question: How did the Potency turn out when `CC12CCCC[C@@H]1CCC1C2CCC2(C)C1CC[C@@]2(O)CNCCO` (some centres not stated) was run?
Answer: The Potency was “inactive”.

Question: How did the Potency turn out when `Cc1cc2nc3c(=O)n(C4CCCCC4)c(=O)[nH]c3nc2cc1N` was run?
Answer: Its Potency is inconclusive: 20 µM [inhibitor, full curve, poor fit].

Question: How did the activity change, negative = inhibition turn out when `O=C(N/N=C/c1ccncc1)c1cccc(S(=O)(=O)Nc2ccc(Cl)cc2)c1` was run?
Answer: Its activity change, negative = inhibition is inconclusive: -133% [inhibitor].

Question: Which Potency does the source give for `Cc1ccc(-c2cc(C(=O)NCc3cccnc3)no2)cc1` here?
Answer: Its Potency is inconclusive: 44.7 µM [inhibitor, partial curve, poor fit].

Question: For `Nc1nnnn1/N=C/c1cccc(OCc2ccccc2Cl)c1`, which Potency is on record?
Answer: The Potency was inconclusive: 89.1 µM [inhibitor, single point].

Question: How did the Potency turn out when `CCSc1nc2cc(OC)c(OC)cc2c(=O)n1CCc1ccccc1` was run?
Answer: Its Potency is inconclusive: 0.141 µM [inhibitor, full curve, poor fit].

Question: How did the Potency turn out when `O=C(Nc1ncc([N+](=O)[O-])s1)c1ccc2c(c1)OCO2` was run?
Answer: Its Potency is inconclusive: 0.141 µM [inhibitor, full curve, poor fit].

Question: How did the Potency turn out when `COC(=O)c1cccc(NC(=O)COc2cccc([N+](=O)[O-])c2)c1` was run?
Answer: Its Potency is inconclusive: 56.2 µM [inhibitor, partial curve, poor fit].

Question: With `Cc1noc(-c2ccc(NC(C)c3ccccc3)c([N+](=O)[O-])c2)n1` (configuration not stated) as the compound, how does the Potency read?
Answer: The Potency was “inactive”.

Question: For `CCOC(=O)CC(=O)CSc1nc2ccsc2c(=O)n1Cc1ccccc1`, which Potency is on record?
Answer: Its Potency is “inactive”.

Question: How did the Potency turn out when `O=C(COC(=O)CCc1nc2ccccc2s1)Nc1ncc(Cl)cc1Cl` was run?
Answer: The Potency was inconclusive: 28.2 µM [inhibitor, single point].

Question: For `O=C(CN1CCc2ccccc21)Nc1ccc2c(c1)OCO2`, which Potency is on record?
Answer: Its Potency is inconclusive: 79.4 µM [inhibitor, partial curve, poor fit].

Question: With `COc1ccc(Nc2nc3ccccc3s2)cc1` as the compound, how does the Potency read?
Answer: Its Potency is inconclusive: 5.01 µM [inhibitor, single point].

Question: Which Potency does the source give for `CC(C)CC(COCc1cccc(C(F)(F)F)c1)N1CCN(C(=O)c2cccc(C(F)(F)F)c2)CCC1=O` (configuration not stated) here?
Answer: The Potency was inconclusive: 15.8 µM [inhibitor, single point].

Question: For `Cc1ccc(NS(=O)(=O)c2ccc3[nH]c4c(c3c2)CCCC4)cc1N(C)C`, which Potency is on record?
Answer: The Potency was “inactive”.

Question: `CC(C)Nc1nc(-c2ccccc2)nc(-n2ccnc2)n1` was tested. Which Potency did it give?
Answer: Its Potency is “inactive”.

Question: `O=C(Nc1ccc(-n2nncc2-c2ccco2)cc1)c1cc2ccccc2oc1=O` was tested. Which Potency did it give?
Answer: The Potency was active: 28.2 µM.

Question: For `COc1ccc(C(=O)Nc2sc3c(c2C(=O)NCc2ccco2)CCCC3)cc1OC`, which Potency is on record?
Answer: The Potency was inconclusive: 7.08 µM [inhibitor, partial curve, poor fit].

Question: Which Potency does the source give for `Cc1ccc(CCNS(=O)(=O)c2c(C)nc3sc(C)c(C)n3c2=O)cc1` here?
Answer: Its Potency is “inactive”.

Question: Which Potency does the source give for `COc1ccc(N2CC(C(=O)Nc3nnc(Cc4ccccc4)s3)CC2=O)cc1` (configuration not stated) here?
Answer: Its Potency is inconclusive: 39.8 µM [inhibitor, single point].

Question: How did the Potency turn out when `Cc1ccc(CNC(=O)c2ccc3c(=O)n(CCCN4CCCC4=O)c(=S)[nH]c3c2)cc1` was run?
Answer: Its Potency is active: 31.6 µM.

Question: Which activity change, negative = inhibition does the source give for `CCOC(=O)N1CCN(C(=O)c2cc(COc3ccc(Cl)cc3OC)on2)CC1` here?
Answer: The activity change, negative = inhibition was inconclusive: -30.2% [inhibitor].

Question: Which Potency does the source give for `CC(=O)Nc1ccc(NS(=O)(=O)c2cccc3ccccc23)cc1` here?
Answer: Its Potency is “inactive”.

Question: For `COc1cccc(CN(C)C(=O)c2cc(-c3ccc(F)cc3)nc3ccccc23)c1`, which activity change, negative = inhibition is on record?
Answer: Its activity change, negative = inhibition is inconclusive: -63.4% [inhibitor].

Question: For `COC(=O)c1scc(-c2ccc(C)cc2)c1S(=O)(=O)N1CCN(c2ccc(C(C)=O)cc2)CC1`, which Potency is on record?
Answer: The Potency was “inactive”.

Question: With `Cc1nc2nc(NCc3ccc(Cl)cc3)[nH]n2c(=O)c1Cc1ccccc1` as the compound, how does the Potency read?
Answer: Its Potency is “inactive”.

Question: Which Potency does the source give for `NC(=O)c1c(NC(=O)CN2C(=O)NC(Cc3ccccc3)C2=O)sc2c1CCC2` (configuration not stated) here?
Answer: Its Potency is inconclusive: 14.1 µM [inhibitor, full curve].

Question: `S=c1[nH]c2ccc(Cl)cc2s1` was tested. Which Potency did it give?
Answer: Its Potency is “inactive”.

Question: How did the Potency turn out when `Cc1ccc(-n2ncc3c(NCCC4=CCCCC4)ncnc32)cc1` was run?
Answer: The Potency was “inactive”.

Question: `Cc1ccc(Cl)cc1NC(=O)C(C)n1nc(-c2ccccc2)ccc1=O` (configuration not stated) was tested. Which Potency did it give?
Answer: The Potency was inconclusive: 70.8 µM [inhibitor, single point].

Question: How did the Potency turn out when `CC(C)OC(=O)CC12CN(C)CC(CC(=O)OC(C)C)(CN(C)C1)C2=O` was run?
Answer: Its Potency is “inactive”.

Question: Which Potency does the source give for `C=CCOC(=O)C1=C(C)OC(N)=C(C#N)C1c1ccc2c(c1)OCO2` (configuration not stated) here?
Answer: Its Potency is inconclusive: 0.631 µM [inhibitor, full curve, poor fit].

Question: Which Potency does the source give for `Cn1c(=O)c2c(nc(SCC(=O)Nc3ccccc3F)n2Cc2ccc(Cl)cc2)n(C)c1=O` here?
Answer: The Potency was “inactive”.

Question: `O=C(NCc1ccco1)c1sc(=S)n2c1[nH]c(=O)c1ccccc12` was tested. Which Potency did it give?
Answer: Its Potency is active: 50.1 µM.

Question: With `Cc1cc(NC(=O)COC(=O)C(Nc2ccc(C(F)(F)F)cc2Cl)C(C)C)no1` (configuration not stated) as the compound, how does the Potency read?
Answer: Its Potency is inconclusive: 44.7 µM [inhibitor, partial curve].

Question: Which Potency does the source give for `COc1ccc(CNC(=O)/C=C/C(=O)O)cc1OC` here?
Answer: The Potency was inconclusive: 0.794 µM [inhibitor, full curve, poor fit].

Question: With `CCOc1ccc(CCNC(=O)CCCn2c(=O)c3cccn3c3ccccc32)cc1` as the compound, how does the Potency read?
Answer: The Potency was “inactive”.

Question: Which Potency does the source give for `Cc1nn(C)cc1S(=O)(=O)Nc1ccc(C(F)(F)F)cc1` here?
Answer: Its Potency is “inactive”.

Question: `Cc1cc(C)c2c(=O)nc(SCc3ccccc3C)n(C3CC3)c2n1` was tested. Which Potency did it give?
Answer: Its Potency is “inactive”.

Question: Which Potency does the source give for `COc1ccc(C(=O)OC2=C(C(=O)c3ccccc3)N(C)S(=O)(=O)c3ccccc32)cc1OC` here?
Answer: Its Potency is “inactive”.

Question: `N#Cc1cccc(NC(=O)CSc2sc3c(O)cc(=O)[nH]c3c2C#N)c1` was tested. Which Potency did it give?
Answer: Its Potency is inconclusive: 0.631 µM [inhibitor, full curve, poor fit].
